Experimental data taken from patent publication US10603296B1, “Compositions and methods for diagnosis and treatment of neuromuscular disorders” (United States of America as represented by the Secretary of …, priority 2019, dated 2020).

Key:
[1] = Serum metabolite levels (global metabolomics) in Navy dolphins on modified fish diet; format: in vivo, Bottlenose dolphins (Tursiops truncatus); conditions: 2 h postprandial serum
Experimental: The above miR-29C hypothesis was tested in a study. This study examined the ability to identify small molecules in the dolphin serum that, when raised, independently predicted desired changed levels of microRNA targets for neuromuscular disorders. To do this, a modified, wild-type fish diet (“Modified Diet”, see FIG. 1A) was fed to 20 Navy dolphins in netted enclosures within San Diego Bay. The Modified Diets of the 20 Navy dolphins were modified from a 75% capelin (plus 25% mix of squid, herring or mackerel) baseline diet, (“Baseline Diet”, FIG. 1B), to a diet consisting of 25% capelin, 50% mullet, and 25% mix of squid, herring, or mackerel, FIG. 1A, while maintaining the same kilocalories. […] Blood samples from this study archived at −80° C. were submitted for global metabolomics and microRNA readouts. A total of 120 archived serum samples from this study were analyzed for small molecules using global metabolomics. Briefly, serum extracts were prepared and analyzed using three methods: ultrahigh performance liquid chromatography-tandem mass spectroscopy (UPLC-MS/MS) with positive ion mode electrospray ionization (ESI), UPLC-MS/MS with negative ion mode ESI, and hydrophilic interaction liquid chromatography (UPLC-MS/MS). […] Peaks were quantified using area-under-the-curve. […]

[2] = Serum metabolite levels, Sarasota Bay wild dolphins compared to Navy dolphins; format: in vivo; conditions: 38 wild Sarasota Bay dolphins vs 26 Navy dolphins (355 samples), Welch's t-test
Experimental: To test this additional hypothesis, routine, fasted serum samples collected throughout 26 Navy dolphins' lifespans and archived at −80° C. were submitted for global metabolomics. The sample set targeted one sample for each dolphin's year of life, resulting in 355 samples for the study with paired clinical pathology data. In addition, single serum samples from 38 healthy wild dolphins living in Sarasota Bay, Fla. were included in the sample set. Methodology for metabolomics analyses were the same as described under Example 1 described above. Welch's two-sample t-tests were performed to compare metabolite quantities between Navy dolphins and wild dolphins, and a P value≤0.05 was used to define significance.

## CCCCCCCCCCCCC(O)C(=O)O (stereo not shown) [2-hydroxymyristate]
[1]
  increase of serum level on modified diet: 50%
[2]
  serum level, wild dolphins relative to Navy dolphins: 1.23 times higher

## CC(=O)NCCc1c[nH]cn1 [N-acetylhistamine]
[1]
  increase of serum level on modified diet: 5 fold
[2]
  serum level, wild dolphins relative to Navy dolphins: 8.93 times higher
